# Test results as given in PubChem BioAssay (Tox21).
# Chains of the proteins cited; added tags and fusions are not shown. Lines headed by an entry give the natural chain unless they say otherwise; changes in a name come on top.
# UniProt P11712, whole entry, looked up: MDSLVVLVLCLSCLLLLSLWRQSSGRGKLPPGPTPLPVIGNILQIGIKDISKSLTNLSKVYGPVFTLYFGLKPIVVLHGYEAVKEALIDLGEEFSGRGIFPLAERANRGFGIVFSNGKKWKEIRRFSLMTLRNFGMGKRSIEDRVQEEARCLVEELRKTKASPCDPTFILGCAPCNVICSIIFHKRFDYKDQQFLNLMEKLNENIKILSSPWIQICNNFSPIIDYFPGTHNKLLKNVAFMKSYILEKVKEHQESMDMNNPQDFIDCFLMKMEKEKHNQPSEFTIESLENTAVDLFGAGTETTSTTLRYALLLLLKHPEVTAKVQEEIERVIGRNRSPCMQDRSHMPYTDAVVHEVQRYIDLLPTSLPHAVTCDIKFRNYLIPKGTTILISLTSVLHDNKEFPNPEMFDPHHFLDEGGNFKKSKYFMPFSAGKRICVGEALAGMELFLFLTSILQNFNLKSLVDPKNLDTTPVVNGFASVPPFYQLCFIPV
# UniProt P33261, whole entry, looked up: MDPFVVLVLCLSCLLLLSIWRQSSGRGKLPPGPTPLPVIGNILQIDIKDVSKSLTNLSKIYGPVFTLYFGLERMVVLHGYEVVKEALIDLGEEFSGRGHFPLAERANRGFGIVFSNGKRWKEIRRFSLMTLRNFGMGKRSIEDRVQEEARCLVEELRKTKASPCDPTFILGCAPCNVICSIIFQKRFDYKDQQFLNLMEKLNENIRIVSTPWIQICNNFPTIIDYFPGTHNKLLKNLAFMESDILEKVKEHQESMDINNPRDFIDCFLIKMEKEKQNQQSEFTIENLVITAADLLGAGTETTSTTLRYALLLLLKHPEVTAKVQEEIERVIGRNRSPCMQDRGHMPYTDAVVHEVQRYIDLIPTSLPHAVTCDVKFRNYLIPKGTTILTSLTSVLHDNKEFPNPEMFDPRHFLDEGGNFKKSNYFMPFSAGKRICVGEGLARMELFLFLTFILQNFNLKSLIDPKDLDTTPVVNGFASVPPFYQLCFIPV
# UniProt Q12809: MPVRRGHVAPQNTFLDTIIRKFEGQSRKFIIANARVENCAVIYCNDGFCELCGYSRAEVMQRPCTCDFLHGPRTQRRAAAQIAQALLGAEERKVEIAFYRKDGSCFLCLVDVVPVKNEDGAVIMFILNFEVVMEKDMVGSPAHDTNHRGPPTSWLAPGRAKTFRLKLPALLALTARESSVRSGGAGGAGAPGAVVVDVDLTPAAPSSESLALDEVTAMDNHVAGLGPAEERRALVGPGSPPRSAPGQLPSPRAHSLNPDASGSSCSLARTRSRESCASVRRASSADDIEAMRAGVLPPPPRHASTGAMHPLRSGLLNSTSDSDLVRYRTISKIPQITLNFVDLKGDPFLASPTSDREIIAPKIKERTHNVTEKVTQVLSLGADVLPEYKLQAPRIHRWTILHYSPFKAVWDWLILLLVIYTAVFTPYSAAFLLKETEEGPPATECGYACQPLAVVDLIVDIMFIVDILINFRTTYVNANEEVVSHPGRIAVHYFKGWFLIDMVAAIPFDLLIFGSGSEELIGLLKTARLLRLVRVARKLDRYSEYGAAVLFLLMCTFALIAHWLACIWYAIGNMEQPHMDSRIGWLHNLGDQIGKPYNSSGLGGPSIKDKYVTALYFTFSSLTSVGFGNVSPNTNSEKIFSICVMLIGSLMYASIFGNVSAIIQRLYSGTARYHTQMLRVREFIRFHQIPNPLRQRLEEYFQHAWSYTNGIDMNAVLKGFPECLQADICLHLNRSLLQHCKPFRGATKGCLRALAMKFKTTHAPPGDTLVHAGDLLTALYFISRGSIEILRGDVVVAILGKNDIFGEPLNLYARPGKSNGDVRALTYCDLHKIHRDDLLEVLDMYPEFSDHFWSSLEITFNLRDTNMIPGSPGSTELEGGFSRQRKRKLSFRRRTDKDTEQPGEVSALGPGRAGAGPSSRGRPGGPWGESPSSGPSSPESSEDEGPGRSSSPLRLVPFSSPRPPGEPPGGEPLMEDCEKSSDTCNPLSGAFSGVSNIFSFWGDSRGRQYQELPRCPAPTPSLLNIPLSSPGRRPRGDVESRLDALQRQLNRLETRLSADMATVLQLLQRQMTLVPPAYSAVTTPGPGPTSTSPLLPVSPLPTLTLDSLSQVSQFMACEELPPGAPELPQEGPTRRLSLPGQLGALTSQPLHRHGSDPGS
# UniProt P08684, whole entry, looked up: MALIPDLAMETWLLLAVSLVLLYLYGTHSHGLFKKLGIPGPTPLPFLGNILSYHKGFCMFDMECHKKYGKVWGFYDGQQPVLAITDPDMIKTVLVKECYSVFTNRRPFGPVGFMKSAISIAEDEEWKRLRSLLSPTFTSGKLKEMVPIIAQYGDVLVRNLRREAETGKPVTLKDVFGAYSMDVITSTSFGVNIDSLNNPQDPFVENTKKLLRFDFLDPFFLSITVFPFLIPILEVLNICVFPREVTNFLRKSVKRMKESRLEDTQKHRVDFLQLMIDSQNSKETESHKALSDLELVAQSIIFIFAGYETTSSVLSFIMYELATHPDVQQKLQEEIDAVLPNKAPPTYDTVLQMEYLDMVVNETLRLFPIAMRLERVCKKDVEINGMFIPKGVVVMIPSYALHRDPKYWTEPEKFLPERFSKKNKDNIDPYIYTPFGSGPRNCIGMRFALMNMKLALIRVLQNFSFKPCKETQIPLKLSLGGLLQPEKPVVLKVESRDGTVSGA
# UniProt P05177, whole entry, looked up: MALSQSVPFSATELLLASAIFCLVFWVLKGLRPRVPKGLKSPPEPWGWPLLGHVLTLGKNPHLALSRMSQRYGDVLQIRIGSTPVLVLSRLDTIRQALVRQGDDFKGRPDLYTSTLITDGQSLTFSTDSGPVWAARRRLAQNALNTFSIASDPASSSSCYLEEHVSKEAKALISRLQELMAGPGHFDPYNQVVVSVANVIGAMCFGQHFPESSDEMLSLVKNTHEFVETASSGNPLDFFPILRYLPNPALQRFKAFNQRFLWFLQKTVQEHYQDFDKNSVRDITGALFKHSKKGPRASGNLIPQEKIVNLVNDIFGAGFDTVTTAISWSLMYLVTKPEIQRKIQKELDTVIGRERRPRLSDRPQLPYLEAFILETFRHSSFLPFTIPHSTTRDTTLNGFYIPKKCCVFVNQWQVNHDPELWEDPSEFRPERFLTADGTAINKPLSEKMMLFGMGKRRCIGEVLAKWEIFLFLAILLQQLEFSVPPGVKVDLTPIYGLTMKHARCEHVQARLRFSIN
# Several values for one entry are separate records, joined by “and”; a condition that tells them apart may be missing. Identical values can stand only once. The inconclusive results got no clear call from the source; some entries with a clear call stand among them for comparison. A potency beside an inconclusive call is a rough fit, not a confirmed value. A structure can be active in one record and inactive in another. Activity calls are given as the source filed them. Calls follow the shape of the dose curve; as a rule, active = well fitted curve in the direction sought with a large enough effect in the repeat runs; inconclusive = weak or mixed curves; inactive = no such curve, though single readings can be large; an effect the other way counts as inactive or inconclusive.
# Key:
# [1] = biological target: Cytochrome P450 2C9 (Homo sapiens) (UniProt P11712); assay: Cytochrome P450 Family 2 Subfamily C Member 9 (CYP2C9) small molecule antagonists: luciferase reporter qHTS assay (AID 1671198); also: nearly all actives have a fitted effect of over 50% in size; as to activity change, negative = inhibition: series mostly up to about 120 µM; % is scaled to controls: 0 for no effect and ±100 for the full control effect
# Summary of the method: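 P450-Glo proluciferin substrate with CYP2C9 enzyme; 10 min RT preincubation, then NADPH regeneration 1 h at 37C; luciferin detection reagent 20 min RT, luminescence in relative luminescence units.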
# [2] = biological target: Cytochrome P450 2C19 (Homo sapiens) (UniProt P33261); assay: Cytochrome P450 Family 2 Subfamily C Member 19 (CYP2C19) small molecule antagonists: luciferase reporter qHTS assay (AID 1671197); also: nearly all actives have a fitted effect of over 65% in size; as to activity change, negative = inhibition: series mostly up to about 120 µM; % is scaled to controls: 0 for no effect and ±100 for the full control effect
# Summary of the method: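 Luminescent readout of CYP2C19 activity: luciferin product detected 20 min after adding detection reagent. Before that, compound and enzyme-substrate mix preincubated 10 min at room temperature; NADPH-regenerating system started a 1 h, 37C reaction. Ketoconazole as positive control.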
# [3] = biological target: Voltage-gated inwardly rectifying potassium channel KCNH2 (Homo sapiens) (UniProt Q12809); assay: Human Ether-a-go-go-Related Gene (hERG) channel small molecule antagonists: fluorescence cell-based qHTS assay (AID 1671200); also: nearly all actives have a fitted effect of over 50% in size;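 as to activity change, negative = inhibition: hERG-expressing U2OS cells given a thallium stimulus after FluxOR II dye loading; series mostly up to about 77 µM; % is scaled to controls: 0 for no effect and ±100 for the full control effect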
# Summary of the method: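 In this thallium-flux screen, overnight-cultured U2OS cells bearing the channel are dye-loaded in darkness for an hour, rested 10 min at room temperature, and then monitored kinetically at 480/540 nm for two minutes post-stimulus.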
# [4] = biological target: Cytochrome P450 3A4 (Homo sapiens) (UniProt P08684); assay: Cytochrome P450 Family 3 Subfamily A Member 4 (CYP3A4) small molecule antagonists: luciferase reporter qHTS assay (AID 1671201); also: nearly all actives have a fitted effect of over 50% in size; as to activity change, negative = inhibition: series mostly up to about 120 µM; % is scaled to controls: 0 for no effect and ±100 for the full control effect
# Summary of the method: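 CYP3A4 activity was followed with a P450-Glo proluciferin substrate. Test compounds in DMSO were preincubated 10 min; NADPH regeneration then ran 1 h, and light output was read 20 min after detection reagent.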
# [5] = biological target: Cytochrome P450 1A2 (Homo sapiens) (UniProt P05177); assay: Cytochrome P450 Family 1 Subfamily A Member 2 (CYP1A2) small molecule antagonists: luciferase reporter qHTS assay (AID 1671199); also: nearly all actives have a fitted effect of over 50% in size
# Summary of the method: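 Enzymatic CYP1A2 assay, human, luminescent: 10 min compound–enzyme–substrate preincubation, 1 h NADPH-dependent turnover, 20 min detection step, room temperature throughout. Reduced light indicates lower CYP1A2 activity.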
# Potency is read from the fitted curve at half-maximal effect.
smiles,measurement,setting,value
c1cc2ccc3ccc4ccc5cccc6c(c1)c2c3c4c56,"activity change, negative = inhibition",[1],inactive: -14.6% [at 4.07 µM]
CC1(C)C(=O)N(Cl)C(=O)N1Br,Potency,[2],"inconclusive: 89.4 µM [inhibitor, single point]"
same,Potency,[1],"inconclusive: 71 µM [inhibitor, partial curve]"
same,Potency,[3],inactive
same,Potency,[4],"inconclusive: 56.4 µM [inhibitor, partial curve]"
Nc1ccc(Cl)cc1Cl,Potency,[2],inactive
same,Potency,[1],"inactive and inconclusive: 44.8 µM [inhibitor, partial curve]"
same,Potency,[5],active: 31.4 µM and active: 39.9 µM
same,Potency,[4],"inconclusive: 39.5 µM [inhibitor, partial curve] and inconclusive: 39.9 µM [inhibitor, partial curve]"
CCCCN1C(=O)c2ccccc2C1=O,Potency,[1],"inconclusive: 36.9 µM [inhibitor, partial curve]"
CCOC(=O)COc1ccc(C)cc1,Potency,[1],"inconclusive: 56.4 µM [inhibitor, partial curve, poor fit]"
Cc1ccc(S(=O)(=O)NC(=O)NC2CCCCC2)cc1,Potency,[2],inactive
same,Potency,[1],"inconclusive: 24.5 µM [inhibitor, partial curve]"
same,Potency,[3],inactive
O=C=Nc1ccc(Cc2ccc(N=C=O)cc2)cc1,Potency,[1],"inconclusive: 40.4 µM [inhibitor, partial curve, poor fit]"
Oc1cccc(Nc2ccccc2)c1,Potency,[1],"inconclusive: 41.7 µM [inhibitor, partial curve]"
CC(C)c1ccc2ncccc2c1,Potency,[1],inactive
C[C@H](CN1CCCC1)C(=O)c1ccc(C(F)(F)F)cc1,Potency,[2],"inconclusive: 3.89 µM [inhibitor, single point]"
same,Potency,[5],"inconclusive: 7.23 µM [inhibitor, full curve]"
COc1ccc(C(=O)CC(=O)c2ccc(C(C)(C)C)cc2)cc1,Potency,[2],active: 8.57 µM and inactive
same,Potency,[1],"active: 21.5 µM and inconclusive: 12.3 µM [inhibitor, partial curve]"
same,Potency,[5],"inconclusive: 24.5 µM [inhibitor, partial curve]"
same,Potency,[3],"inconclusive: 21.3 µM [inhibitor, partial curve]"
c1ccc2c(c1)ccc1cc3c(ccc4ccccc43)cc12,Potency,[2],inactive
same,Potency,[5],"inconclusive: 1.76 µM [inhibitor, full curve]"
CC(=O)C(C)O (configuration not stated),Potency,[1],inactive
Cc1c(C)c2c(c(C)c1O)CC[C@@](C)(CCC[C@H](C)CCC[C@H](C)CCCC(C)C)O2,Potency,[2],"inconclusive: 12.7 µM [inhibitor, full curve]"
same,Potency,[4],inactive
CCCCC(CC)COC(C)=O (configuration not stated),Potency,[2],inactive
same,Potency,[5],"inconclusive: 35.2 µM [inhibitor, partial curve]"
C[C@H](CCC(=O)O)[C@H]1CC[C@H]2[C@@H]3C(=O)C[C@@H]4CC(=O)CC[C@]4(C)[C@H]3CC(=O)[C@]12C,Potency,[1],inactive
CCC1COC(=O)O1 (configuration not stated),Potency,[1],inactive
C1CCC(SSC2CCCCC2)CC1,Potency,[2],inactive
same,Potency,[1],"inconclusive: 44.8 µM [inhibitor, partial curve]"
same,Potency,[5],active: 25.2 µM
CCN(CC)c1cccc(O)c1,Potency,[1],"inconclusive: 8.13 µM [inhibitor, full curve]"
CCCC(=O)O,Potency,[2],"inconclusive: 6.66 µM [inhibitor, full curve, poor fit] and inconclusive: 564 nM [inhibitor, single point]"
same,Potency,[5],"inconclusive: 63.3 µM [inhibitor, partial curve]"
CCN(CC)c1ccc2c(-c3ccc(S(=O)(=O)O)cc3S(=O)(=O)[O-])c3ccc(=[N+](CC)CC)cc-3oc2c1,Potency,[2],active: 92.2 µM
same,Potency,[5],active: 20.7 µM
same,Potency,[4],active: 14.6 µM
COC(=O)c1ccc(C(=O)OC)c(C(=O)OC)c1,Potency,[1],"inconclusive: 71 µM [inhibitor, partial curve, poor fit]"
CC(C)(CC(=O)O)C(=O)O,Potency,[1],inactive
C=CC(C)(C)C,Potency,[2],"inconclusive: 82.5 µM [inhibitor, single point]"
same,Potency,[5],"inconclusive: 65.5 µM [inhibitor, partial curve]"
O=C1OC(OC(=O)c2cccnc2Nc2cccc(C(F)(F)F)c2)c2ccccc21 (configuration not stated),Potency,[2],"inconclusive: 1.55 µM [inhibitor, single point]"
same,Potency,[3],"inconclusive: 12 µM [inhibitor, partial curve]"
